According to the supplement of paper PMC5836539:
± gives the standard deviation of the averaged measurements. Single values are uncertain here, since repeats match poorly.

The chains behind the UniProt entries cited, without tags or fusion partners. Where a name states a change or a piece, a line headed by the entry shows the natural chain unless it says otherwise.
UniProt P62995: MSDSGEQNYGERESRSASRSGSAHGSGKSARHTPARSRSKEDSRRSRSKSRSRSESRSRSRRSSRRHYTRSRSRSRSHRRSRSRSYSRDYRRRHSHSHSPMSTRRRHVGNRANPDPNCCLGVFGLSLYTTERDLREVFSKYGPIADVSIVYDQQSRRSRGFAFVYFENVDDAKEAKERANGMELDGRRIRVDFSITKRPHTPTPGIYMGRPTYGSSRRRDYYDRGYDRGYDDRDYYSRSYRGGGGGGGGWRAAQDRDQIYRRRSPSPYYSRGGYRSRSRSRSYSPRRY
UniProt P78559: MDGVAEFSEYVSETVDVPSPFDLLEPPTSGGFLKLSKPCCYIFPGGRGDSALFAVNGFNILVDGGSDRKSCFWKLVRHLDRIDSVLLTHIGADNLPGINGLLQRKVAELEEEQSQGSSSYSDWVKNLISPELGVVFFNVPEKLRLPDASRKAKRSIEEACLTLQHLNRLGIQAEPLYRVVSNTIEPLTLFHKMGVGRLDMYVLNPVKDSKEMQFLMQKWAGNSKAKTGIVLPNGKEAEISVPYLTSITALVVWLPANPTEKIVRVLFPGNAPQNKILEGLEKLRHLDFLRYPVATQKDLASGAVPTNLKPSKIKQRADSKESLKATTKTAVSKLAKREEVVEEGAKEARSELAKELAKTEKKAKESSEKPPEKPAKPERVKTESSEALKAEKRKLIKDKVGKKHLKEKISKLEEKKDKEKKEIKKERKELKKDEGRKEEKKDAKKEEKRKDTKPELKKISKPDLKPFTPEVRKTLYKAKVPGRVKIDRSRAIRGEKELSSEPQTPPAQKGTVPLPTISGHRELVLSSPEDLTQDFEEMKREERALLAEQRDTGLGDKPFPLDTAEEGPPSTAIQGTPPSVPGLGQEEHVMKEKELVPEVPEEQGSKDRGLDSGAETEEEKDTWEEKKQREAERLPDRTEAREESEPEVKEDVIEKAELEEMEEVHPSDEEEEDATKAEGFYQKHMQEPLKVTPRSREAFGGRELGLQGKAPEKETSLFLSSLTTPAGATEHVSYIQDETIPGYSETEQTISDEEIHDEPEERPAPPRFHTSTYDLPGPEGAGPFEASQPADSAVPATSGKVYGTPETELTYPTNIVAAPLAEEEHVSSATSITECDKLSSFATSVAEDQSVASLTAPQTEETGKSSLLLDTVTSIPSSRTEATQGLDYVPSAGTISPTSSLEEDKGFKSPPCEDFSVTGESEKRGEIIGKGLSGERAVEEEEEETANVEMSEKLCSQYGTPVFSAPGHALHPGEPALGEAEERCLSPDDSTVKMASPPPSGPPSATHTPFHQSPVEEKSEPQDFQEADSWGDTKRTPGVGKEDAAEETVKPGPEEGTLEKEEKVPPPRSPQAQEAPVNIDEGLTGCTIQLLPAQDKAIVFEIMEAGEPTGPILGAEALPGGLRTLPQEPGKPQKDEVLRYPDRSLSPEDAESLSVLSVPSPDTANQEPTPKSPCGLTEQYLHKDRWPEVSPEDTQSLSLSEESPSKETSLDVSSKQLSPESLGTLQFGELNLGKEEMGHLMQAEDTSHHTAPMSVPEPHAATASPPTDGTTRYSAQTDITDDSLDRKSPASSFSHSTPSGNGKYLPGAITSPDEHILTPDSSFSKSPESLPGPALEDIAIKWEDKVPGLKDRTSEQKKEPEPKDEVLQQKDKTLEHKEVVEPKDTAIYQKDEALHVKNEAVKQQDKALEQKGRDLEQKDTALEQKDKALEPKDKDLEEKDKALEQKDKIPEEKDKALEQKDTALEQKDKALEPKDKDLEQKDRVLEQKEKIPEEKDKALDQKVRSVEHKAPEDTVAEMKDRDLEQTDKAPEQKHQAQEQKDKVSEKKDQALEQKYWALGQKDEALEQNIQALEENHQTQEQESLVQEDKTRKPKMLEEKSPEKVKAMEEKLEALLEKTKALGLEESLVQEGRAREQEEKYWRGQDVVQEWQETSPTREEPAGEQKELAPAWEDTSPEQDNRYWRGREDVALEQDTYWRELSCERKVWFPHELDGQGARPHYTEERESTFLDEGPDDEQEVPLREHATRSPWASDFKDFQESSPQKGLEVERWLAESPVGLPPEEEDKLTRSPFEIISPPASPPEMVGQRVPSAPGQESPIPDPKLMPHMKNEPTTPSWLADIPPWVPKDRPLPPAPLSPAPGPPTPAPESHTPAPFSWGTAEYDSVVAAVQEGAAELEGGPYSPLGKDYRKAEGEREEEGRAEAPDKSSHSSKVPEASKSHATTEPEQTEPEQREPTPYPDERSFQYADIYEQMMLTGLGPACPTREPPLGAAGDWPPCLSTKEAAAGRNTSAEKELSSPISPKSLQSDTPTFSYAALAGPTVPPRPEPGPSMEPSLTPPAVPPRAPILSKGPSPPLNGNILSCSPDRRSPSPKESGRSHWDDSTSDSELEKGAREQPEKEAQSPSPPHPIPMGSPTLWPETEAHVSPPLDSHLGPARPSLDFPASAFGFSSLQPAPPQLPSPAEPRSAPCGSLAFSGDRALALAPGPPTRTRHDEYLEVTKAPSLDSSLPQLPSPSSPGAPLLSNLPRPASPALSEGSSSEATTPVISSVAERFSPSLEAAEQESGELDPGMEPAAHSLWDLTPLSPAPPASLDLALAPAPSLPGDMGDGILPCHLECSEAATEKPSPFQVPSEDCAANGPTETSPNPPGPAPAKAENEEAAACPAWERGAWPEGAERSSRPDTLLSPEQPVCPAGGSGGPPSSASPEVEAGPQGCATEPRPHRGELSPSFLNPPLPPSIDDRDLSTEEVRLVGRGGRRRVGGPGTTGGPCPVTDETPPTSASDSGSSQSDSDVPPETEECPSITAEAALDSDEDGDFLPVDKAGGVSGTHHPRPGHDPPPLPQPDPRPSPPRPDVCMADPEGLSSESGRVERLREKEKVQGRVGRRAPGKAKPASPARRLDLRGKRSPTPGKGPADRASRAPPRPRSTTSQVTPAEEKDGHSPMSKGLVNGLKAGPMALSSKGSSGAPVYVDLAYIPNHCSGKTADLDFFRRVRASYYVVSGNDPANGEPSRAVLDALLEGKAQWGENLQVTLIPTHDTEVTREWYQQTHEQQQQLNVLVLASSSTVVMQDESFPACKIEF
UniProt P83916, whole entry, looked up: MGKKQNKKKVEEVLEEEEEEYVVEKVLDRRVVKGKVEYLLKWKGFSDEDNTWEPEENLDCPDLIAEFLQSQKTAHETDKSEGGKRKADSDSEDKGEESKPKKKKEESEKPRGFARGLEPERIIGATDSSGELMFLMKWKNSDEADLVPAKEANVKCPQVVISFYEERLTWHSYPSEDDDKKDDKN
UniProt Q3YEC7: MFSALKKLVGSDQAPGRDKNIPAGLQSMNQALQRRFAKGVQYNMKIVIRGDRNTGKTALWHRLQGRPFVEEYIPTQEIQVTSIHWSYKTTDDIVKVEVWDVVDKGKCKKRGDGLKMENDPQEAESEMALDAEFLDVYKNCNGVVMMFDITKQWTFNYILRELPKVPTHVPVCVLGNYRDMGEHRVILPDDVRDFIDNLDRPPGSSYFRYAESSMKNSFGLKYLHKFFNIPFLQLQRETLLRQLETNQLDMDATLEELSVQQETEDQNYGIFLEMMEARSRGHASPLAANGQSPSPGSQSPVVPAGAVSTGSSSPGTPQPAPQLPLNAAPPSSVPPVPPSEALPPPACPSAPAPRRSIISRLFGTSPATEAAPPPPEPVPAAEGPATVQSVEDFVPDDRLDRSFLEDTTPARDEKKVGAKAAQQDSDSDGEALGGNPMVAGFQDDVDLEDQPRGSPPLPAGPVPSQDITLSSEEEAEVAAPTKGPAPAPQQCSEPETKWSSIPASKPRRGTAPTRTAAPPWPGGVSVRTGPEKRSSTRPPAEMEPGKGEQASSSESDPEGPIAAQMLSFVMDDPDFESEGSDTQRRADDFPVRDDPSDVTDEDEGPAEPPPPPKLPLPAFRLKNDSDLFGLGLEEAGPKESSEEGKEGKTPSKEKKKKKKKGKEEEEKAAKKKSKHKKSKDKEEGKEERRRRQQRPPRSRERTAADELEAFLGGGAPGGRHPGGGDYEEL
UniProt Q5VSL9: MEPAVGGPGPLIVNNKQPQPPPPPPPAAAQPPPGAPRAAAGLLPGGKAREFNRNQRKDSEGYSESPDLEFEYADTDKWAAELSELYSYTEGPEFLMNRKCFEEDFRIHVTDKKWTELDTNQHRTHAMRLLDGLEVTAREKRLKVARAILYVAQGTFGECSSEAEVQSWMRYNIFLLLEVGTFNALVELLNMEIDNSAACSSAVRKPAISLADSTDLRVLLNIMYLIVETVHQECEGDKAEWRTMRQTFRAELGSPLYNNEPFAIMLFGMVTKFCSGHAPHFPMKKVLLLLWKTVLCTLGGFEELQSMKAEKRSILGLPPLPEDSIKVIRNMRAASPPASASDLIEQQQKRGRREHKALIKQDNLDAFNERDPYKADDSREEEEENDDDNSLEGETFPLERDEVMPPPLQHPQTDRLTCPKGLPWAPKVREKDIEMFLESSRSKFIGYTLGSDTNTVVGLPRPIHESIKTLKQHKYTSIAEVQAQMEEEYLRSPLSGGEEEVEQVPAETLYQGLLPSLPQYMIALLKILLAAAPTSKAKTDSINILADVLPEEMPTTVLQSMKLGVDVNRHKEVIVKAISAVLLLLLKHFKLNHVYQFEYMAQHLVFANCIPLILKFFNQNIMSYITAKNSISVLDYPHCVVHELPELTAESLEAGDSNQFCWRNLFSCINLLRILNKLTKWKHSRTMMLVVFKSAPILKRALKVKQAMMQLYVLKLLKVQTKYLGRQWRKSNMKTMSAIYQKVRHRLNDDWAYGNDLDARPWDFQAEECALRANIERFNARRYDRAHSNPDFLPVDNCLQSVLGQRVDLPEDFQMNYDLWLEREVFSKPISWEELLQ
UniProt Q5VZK9, whole entry, looked up: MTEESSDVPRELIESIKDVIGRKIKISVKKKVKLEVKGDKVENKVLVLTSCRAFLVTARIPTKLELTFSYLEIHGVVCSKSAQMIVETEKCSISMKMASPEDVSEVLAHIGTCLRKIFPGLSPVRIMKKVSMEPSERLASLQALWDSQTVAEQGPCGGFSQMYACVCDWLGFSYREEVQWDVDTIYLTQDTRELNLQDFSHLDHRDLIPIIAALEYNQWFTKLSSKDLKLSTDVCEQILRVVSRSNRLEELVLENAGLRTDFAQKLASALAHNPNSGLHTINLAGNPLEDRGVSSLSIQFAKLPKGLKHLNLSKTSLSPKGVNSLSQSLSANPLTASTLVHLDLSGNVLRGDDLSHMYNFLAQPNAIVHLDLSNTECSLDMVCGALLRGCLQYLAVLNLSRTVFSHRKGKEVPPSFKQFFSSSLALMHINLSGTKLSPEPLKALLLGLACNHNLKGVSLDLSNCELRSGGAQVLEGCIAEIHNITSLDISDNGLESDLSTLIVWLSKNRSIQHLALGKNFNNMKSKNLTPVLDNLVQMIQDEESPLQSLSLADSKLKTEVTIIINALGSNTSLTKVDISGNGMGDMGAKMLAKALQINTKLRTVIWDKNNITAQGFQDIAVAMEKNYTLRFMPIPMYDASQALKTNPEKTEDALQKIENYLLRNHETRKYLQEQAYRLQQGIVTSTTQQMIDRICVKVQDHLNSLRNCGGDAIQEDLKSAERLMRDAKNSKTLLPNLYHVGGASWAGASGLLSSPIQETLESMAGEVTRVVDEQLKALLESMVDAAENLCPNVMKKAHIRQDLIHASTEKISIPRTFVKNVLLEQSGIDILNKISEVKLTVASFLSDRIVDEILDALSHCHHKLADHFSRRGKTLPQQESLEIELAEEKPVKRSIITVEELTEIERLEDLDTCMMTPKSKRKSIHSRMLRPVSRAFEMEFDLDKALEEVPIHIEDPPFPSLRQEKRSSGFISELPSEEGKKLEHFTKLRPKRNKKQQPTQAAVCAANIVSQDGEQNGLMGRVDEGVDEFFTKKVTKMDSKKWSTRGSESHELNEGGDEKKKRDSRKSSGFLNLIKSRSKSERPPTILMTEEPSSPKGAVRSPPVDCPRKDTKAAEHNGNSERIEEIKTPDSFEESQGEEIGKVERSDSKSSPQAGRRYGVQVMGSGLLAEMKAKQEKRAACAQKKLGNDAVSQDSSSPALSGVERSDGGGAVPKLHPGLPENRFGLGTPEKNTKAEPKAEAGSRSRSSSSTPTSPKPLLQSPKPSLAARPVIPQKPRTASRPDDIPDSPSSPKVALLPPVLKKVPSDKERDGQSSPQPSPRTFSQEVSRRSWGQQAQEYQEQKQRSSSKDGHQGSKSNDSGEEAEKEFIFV

Compound: CC[C@@H](C)Nc1cc(C(=O)N[C@H]2C[C@H]3CC[C@@H](C2)N3c2ccc(C(=O)C3CC3)cn2)c(C)cc1C(N)=O [XL888]
Test: phosphopeptide melting temperature shift (XL888 minus DMSO); higher = stabilised by drug treatment
Details: 100 µM; treatment time 2 h; layout: intact cells; SK-Mel 28
Method: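 Phospho-TPP in intact SK-Mel 28 cells treated with 100 uM XL888 or DMSO for 2 h, heated at 10 temperatures (37-67 C) for 3 min, soluble fraction TMT10plex-labelled and TiO2 phospho-enriched. Melting curves were fitted per phosphopeptide; the value is the melting point difference (drug minus vehicle) in each of two biological replicates.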

| Target | phosphopeptide melting temperature shift |
| --- | --- |
| UniProt P62899_phosphosite_98 (phosphosite position: 98) | -1.16 ± 0.56 °C |
| UniProt P62995_phosphosite_264 (phosphosite position: 264) | -0.174 ± 1.5 °C |
| UniProt P62995_phosphosite_266 (phosphosite position: 266) | 5.43 °C |
| UniProt P78316-2_phosphosite_146 (phosphosite position: 146) | 4.96 °C |
| UniProt P78316-2_phosphosite_148 (phosphosite position: 148) | 4.96 °C |
| UniProt P78344-2_phosphosite_395 (phosphosite position: 395) | -2.22 °C |
| UniProt P78527_phosphosite_3205 (phosphosite position: 3205) | -2.44 ± 1 °C |
| UniProt P78559_phosphosite_526 (phosphosite position: 526) | -0.116 ± 0.22 °C |
| UniProt P78559_phosphosite_527 (phosphosite position: 527) | -0.116 ± 0.22 °C |
| UniProt P78559_phosphosite_667 (phosphosite position: 667) | 0.831 °C |
| UniProt P78559_phosphosite_1203 (phosphosite position: 1203) | 1.6 °C |
| UniProt P83916_phosphosite_175 (phosphosite position: 175) | 3.52 ± 1.1 °C |
| UniProt P85037-2_phosphosite_60 (phosphosite position: 60) | 0.841 °C |
| UniProt P85037-2_phosphosite_253 (phosphosite position: 253) | 0.602 °C |
| UniProt P85037-2_phosphosite_257 (phosphosite position: 257) | 1.14 °C |
| UniProt P85037-2_phosphosite_273 (phosphosite position: 273) | 1.06 ± 0.68 °C |
| UniProt P85037-2_phosphosite_278 (phosphosite position: 278) | 1.27 ± 0.36 °C |
| UniProt P98174_phosphosite_48 (phosphosite position: 48) | 1.13 °C |
| UniProt P98175-2_phosphosite_722 (phosphosite position: 722) | 1.29 ± 0.98 °C |
| UniProt Q0GE19-3_phosphosite_266 (phosphosite position: 266) | 0.632 ± 2.1 °C |
| UniProt Q0GE19-3_phosphosite_268 (phosphosite position: 268) | 0.632 ± 2.1 °C |
| UniProt Q0JRZ9-3_phosphosite_370 (phosphosite position: 370) | 1.09 °C |
| UniProt Q0JRZ9-3_phosphosite_455 (phosphosite position: 455) | 2.01 °C |
| UniProt Q0JRZ9-3_phosphosite_463 (phosphosite position: 463) | 3.05 °C |
| UniProt Q2M2I8-2_phosphosite_21 (phosphosite position: 21) | 0.445 ± 1.2 °C |
| UniProt Q2PPJ7-3_phosphosite_820 (phosphosite position: 820) | 0.205 °C |

| Target | phosphopeptide melting temperature shift |
| --- | --- |
| UniProt Q2PPJ7-3_phosphosite_821 (phosphosite position: 821) | 0.205 °C |
| UniProt Q3KQU3-4_phosphosite_116 (phosphosite position: 116) | 1.41 °C |
| UniProt Q3V6T2-5_phosphosite_1674 (phosphosite position: 1674) | 1.14 °C |
| UniProt Q3YEC7_phosphosite_596 (phosphosite position: 596) | 0.21 ± 0.99 °C |
| UniProt Q3YEC7_phosphosite_599 (phosphosite position: 599) | 1.74 ± 1.8 °C |
| UniProt Q3YEC7_phosphosite_640 (phosphosite position: 640) | 0.0774 ± 1.3 °C |
| UniProt Q3YEC7_phosphosite_641 (phosphosite position: 641) | 0.122 ± 0.35 °C |
| UniProt Q5H9R7-2_phosphosite_523 (phosphosite position: 523) | 0.71 ± 1.6 °C |
| UniProt Q5H9R7-2_phosphosite_524 (phosphosite position: 524) | 0.506 ± 1.9 °C |
| UniProt Q5H9R7-2_phosphosite_525 (phosphosite position: 525) | 0.71 ± 1.6 °C |
| UniProt Q5H9R7-2_phosphosite_611 (phosphosite position: 611) | 1.95 ± 0.09 °C |
| UniProt Q5HYJ3-3_phosphosite_193 (phosphosite position: 193) | -0.854 ± 0.3 °C |
| UniProt Q5JSH3-2_phosphosite_50 (phosphosite position: 50) | 2.05 ± 0.51 °C |
| UniProt Q5JSH3-2_phosphosite_162 (phosphosite position: 162) | 0.811 ± 1.1 °C |
| UniProt Q5SSJ5-2_phosphosite_117 (phosphosite position: 117) | -0.623 °C |
| UniProt Q5SYE7-2_phosphosite_1384 (phosphosite position: 1384) | 4.64 °C |
| UniProt Q5T0N5-3_phosphosite_430 (phosphosite position: 430) | -0.663 °C |
| UniProt Q5T0N5-3_phosphosite_443 (phosphosite position: 443) | 0.767 °C |
| UniProt Q5T1M5-2_phosphosite_969 (phosphosite position: 969) | 1.17 °C |
| UniProt Q5T1M5-2_phosphosite_1152 (phosphosite position: 1152) | 0.118 °C |
| UniProt Q5T1M5-2_phosphosite_1154 (phosphosite position: 1154) | 1.47 °C |
| UniProt Q5T1V6-2_phosphosite_76 (phosphosite position: 76) | 1.25 °C |
| UniProt Q5T4S7-3_phosphosite_1761 (phosphosite position: 1761) | 1.11 ± 0.23 °C |
| UniProt Q5T4S7-3_phosphosite_1763 (phosphosite position: 1763) | 1.87 ± 1.6 °C |
| UniProt Q5T4S7-3_phosphosite_2729 (phosphosite position: 2729) | 0.521 °C |
| UniProt Q5T4S7-3_phosphosite_2733 (phosphosite position: 2733) | 1.07 °C |

| Target | phosphopeptide melting temperature shift |
| --- | --- |
| UniProt Q5T8I3-2_phosphosite_193 (phosphosite position: 193) | -1.39 ± 2 °C |
| UniProt Q5T8I3-2_phosphosite_320 (phosphosite position: 320) | 1.61 °C |
| UniProt Q5T8P6-3_phosphosite_127 (phosphosite position: 127) | -0.113 °C |
| UniProt Q5T200-2_phosphosite_198 (phosphosite position: 198) | 0.149 ± 0.28 °C |
| UniProt Q5T200-2_phosphosite_325 (phosphosite position: 325) | 1.99 °C |
| UniProt Q5T200-2_phosphosite_877 (phosphosite position: 877) | -0.0836 °C |
| UniProt Q5T200-2_phosphosite_1208 (phosphosite position: 1208) | 2.14 ± 1.3 °C |
| UniProt Q5TAQ9-2_phosphosite_99 (phosphosite position: 99) | 0.866 ± 1.4 °C |
| UniProt Q5TDH0-2_phosphosite_121 (phosphosite position: 121) | 4.01 ± 1 °C |
| UniProt Q5THJ4-2_phosphosite_1038 (phosphosite position: 1038) | 1.92 ± 2.2 °C |
| UniProt Q5THJ4-2_phosphosite_1138 (phosphosite position: 1138) | 1.24 °C |
| UniProt Q5THJ4-2_phosphosite_1709 (phosphosite position: 1709) | 1.11 °C |
| UniProt Q5VSL9_phosphosite_335 (phosphosite position: 335) | 0.412 ± 0.3 °C |
| UniProt Q5VT52-2_phosphosite_556 (phosphosite position: 556) | 1.58 °C |
| UniProt Q5VTB9-3_phosphosite_177 (phosphosite position: 177) | 0.302 ± 0.37 °C |
| UniProt Q5VZ89-2_phosphosite_208 (phosphosite position: 208) | 1.99 ± 2 °C |
| UniProt Q5VZ89-2_phosphosite_213 (phosphosite position: 213) | 1.99 ± 2 °C |
| UniProt Q5VZK9-2_phosphosite_916 (phosphosite position: 916) | 0.0893 ± 0.75 °C |
| UniProt Q5VZK9-2_phosphosite_1270 (phosphosite position: 1270) | 4.99 °C |
| UniProt Q5VZK9-2_phosphosite_1286 (phosphosite position: 1286) | 0.395 °C |
| UniProt Q5XUX1-3_phosphosite_18 (phosphosite position: 18) | 2.33 °C |
| UniProt Q6GYQ0-3_phosphosite_907 (phosphosite position: 907) | 0.992 ± 0.17 °C |
| UniProt Q6GYQ0-3_phosphosite_908 (phosphosite position: 908) | 1.12 °C |
| UniProt Q6ICG6-3_phosphosite_270 (phosphosite position: 270) | 0.598 ± 1.6 °C |

Pulled one by one from above (4):

| Target | phosphopeptide melting temperature shift |
| --- | --- |
| UniProt Q5T8I3-2_phosphosite_320 (phosphosite position: 320) | 1.61 °C |
| UniProt Q5T200-2_phosphosite_325 (phosphosite position: 325) | 1.99 °C |
| UniProt Q5THJ4-2_phosphosite_1138 (phosphosite position: 1138) | 1.24 °C |
| UniProt Q5VZK9-2_phosphosite_916 (phosphosite position: 916) | 0.0893 ± 0.75 °C |
